Test results: PubChem BioAssay AID1347075 (National Center for Advancing Translational Sciences (NCATS), 2019)
The campaign covered roughly 400,000 compounds. About 5,500 (1.4%) were called active. The inconclusive results got no clear call from the source; some entries with a clear call stand among them for comparison. The call rests on the fitted dose curve; in most records, active means well fitted cell-killing curve with a large enough effect; inconclusive means small, poorly fitted or top-dose-only effect, or effect the other way; inactive means flat fitted curve, though single readings scatter. Potencies of inconclusive entries are doubtful fits and often do not repeat.

Assay: qHTS assay for MDR1-selective chemotherapeutics: Primary screen using the parental adenocarcinoma cell KB-3-1; further: nearly all actives have a fitted effect of over 60% in size
Settings: KB-3-1 viability, CellTiter-Glo ATP luminescence, 72 h; activity change, negative = cytotoxic: at 46.1 µM (top of the series)
In short: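 Multi-concentration cytotoxicity screen in KB-3-1 cells grown in DMEM lacking phenol red with 10% FBS. After 72 h at 37 °C with compound, ATP-dependent luminescence was recorded.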
On the % scale 0 is the no-effect control and ±100 the full control effect; potency means the concentration at half of the fitted maximal effect.

| SMILES | activity change, negative = cytotoxic | Potency |
| --- | --- | --- |
| CCN(CC)/C(Sc1ccccc1)=C(/C(Cl)=C(Cl)Cl)[N+](=O)[O-] | inactive: -10.8% |  |
| O=C(Nc1nc2c(s1)CCCC2)c1cc(-c2ccncc2)nc2ccccc12 |  | inconclusive: 29.1 µM [rising, partial curve, poor fit] |
| CCc1ccc(Nc2n[n+](-c3ccccc3)c(-c3ccc(C(=O)O)cc3)s2)cc1 | inactive: -3.06% |  |
| CCc1cc(=O)oc2cc(OCC(=O)NCCCN3CCOCC3)c(Cl)cc12 |  | inconclusive: 11.6 µM [rising, partial curve, poor fit] |
| CCOc1ccc2nc(NCCNC(=O)Nc3cccc(C)c3)c(C#N)cc2c1 |  | inconclusive: 29.1 µM [cytotoxic, single point] |
| CCCc1cc(=O)oc2cc3oc(C)c(C)c3cc12 | inactive: -2.13% |  |
| COc1cc(/C=C/C(=O)c2ccc3c(c2)OCO3)cc(OC)c1OC |  | inconclusive: 18.4 µM [cytotoxic, single point] |
| O=c1oc2ccccc2cc1-c1nnc(NCc2ccco2)s1 |  | inconclusive: 29.1 µM [cytotoxic, single point] |
| CC1c2cc3c(cc2CCN1C(=O)c1ccc(Cl)cc1)OCCCO3 (stereo not given) |  | inconclusive: 29.1 µM [cytotoxic, single point] |
| N#C/C(=C\c1cccnc1)c1nc2ccccc2[nH]1 |  | inconclusive: 29.1 µM [cytotoxic, single point] |
| COc1ccc(OCc2nnc3n2N=C(c2ccccc2)CS3)cc1 | inactive: 0% |  |
| COc1ccccc1CNS(=O)(=O)c1cc(Br)cc2c1N(C(=O)C1CC1)CC2 | inactive: 1.5% |  |
| CCOC(=O)/C(C#N)=C/c1c(N2CCN(c3cccc(Cl)c3)CC2)nc2c(C)cccn2c1=O |  | inconclusive: 29.1 µM [cytotoxic, single point] |
| CC(C)(C)c1ccc(C(=O)NCCCN2CCN(CCCNC(=O)c3ccc(C(C)(C)C)cc3)CC2)cc1 |  | inconclusive: 29.1 µM [cytotoxic, single point] |
| O=C(Nc1ccc(F)cc1)c1cc(S(=O)(=O)N2CCCCC2)cs1 |  | inconclusive: 18.4 µM [cytotoxic, partial curve] |
| Cc1cccc(C)c1NC(=O)C(c1ccccc1)N1CCC(Cc2ccccc2)CC1 (stereo not given) | inactive: 0.0564% |  |
| O=C(NCc1ccccc1Cl)c1ccc2nnsc2c1 |  | inconclusive: 4.11 µM [cytotoxic, full curve] |
| O=C(c1cc(COc2ccc(F)cc2F)on1)N1CCSCC1 | inactive: 2.56% |  |
| COc1ccc(C(=O)C2C(=O)C(=O)N(Cc3ccco3)C2c2cccs2)cc1 (stereo not given) |  | inconclusive: 14.6 µM [rising, partial curve] |
| O=C(CC1Sc2ccccc2NC1=O)NNc1ccc(Cl)cc1Cl (stereo not given) | inactive: -6.81% |  |
| COc1cc(/C=C(/C(=O)O)c2ccc(-c3ccccc3)cc2)cc(OC)c1OC |  | inconclusive: 16.4 µM [cytotoxic, single point] |
| CC1CN(C(=O)c2cc3cc([N+](=O)[O-])ccc3s2)CC(C)O1 (stereo not given) | inconclusive: -63.5% |  |
| COc1ccc(NC(=O)C2(C)Cc3c(-c4cccc(NC(C)=O)c4)ccnc3O2)cc1OC (stereo not given) |  | inconclusive: 18.4 µM [cytotoxic, single point] |
| O=C(/C=C/NNC(=O)c1ccccc1O)c1ccccc1 |  | inconclusive: 32.6 µM [cytotoxic, single point] |

17 structures already listed, sorted by SMILES length, ascending:

| SMILES | activity change, negative = cytotoxic | Potency |
| --- | --- | --- |
| O=C(NCc1ccccc1Cl)c1ccc2nnsc2c1 |  | inconclusive: 4.11 µM [cytotoxic, full curve] |
| CCCc1cc(=O)oc2cc3oc(C)c(C)c3cc12 | inactive: -2.13% |  |
| N#C/C(=C\c1cccnc1)c1nc2ccccc2[nH]1 |  | inconclusive: 29.1 µM [cytotoxic, single point] |
| O=c1oc2ccccc2cc1-c1nnc(NCc2ccco2)s1 |  | inconclusive: 29.1 µM [cytotoxic, single point] |
| O=C(c1cc(COc2ccc(F)cc2F)on1)N1CCSCC1 | inactive: 2.56% |  |
| O=C(CC1Sc2ccccc2NC1=O)NNc1ccc(Cl)cc1Cl (stereo not given) | inactive: -6.81% |  |
| CC1c2cc3c(cc2CCN1C(=O)c1ccc(Cl)cc1)OCCCO3 (stereo not given) |  | inconclusive: 29.1 µM [cytotoxic, single point] |
| O=C(Nc1ccc(F)cc1)c1cc(S(=O)(=O)N2CCCCC2)cs1 |  | inconclusive: 18.4 µM [cytotoxic, partial curve] |
| CCc1cc(=O)oc2cc(OCC(=O)NCCCN3CCOCC3)c(Cl)cc12 |  | inconclusive: 11.6 µM [rising, partial curve, poor fit] |
| CC1CN(C(=O)c2cc3cc([N+](=O)[O-])ccc3s2)CC(C)O1 (stereo not given) | inconclusive: -63.5% |  |
| Cc1cccc(C)c1NC(=O)C(c1ccccc1)N1CCC(Cc2ccccc2)CC1 (stereo not given) | inactive: 0.0564% |  |
| COc1ccc(C(=O)C2C(=O)C(=O)N(Cc3ccco3)C2c2cccs2)cc1 (stereo not given) |  | inconclusive: 14.6 µM [rising, partial curve] |
| CCN(CC)/C(Sc1ccccc1)=C(/C(Cl)=C(Cl)Cl)[N+](=O)[O-] | inactive: -10.8% |  |
| CCc1ccc(Nc2n[n+](-c3ccccc3)c(-c3ccc(C(=O)O)cc3)s2)cc1 | inactive: -3.06% |  |
| COc1ccc(NC(=O)C2(C)Cc3c(-c4cccc(NC(C)=O)c4)ccnc3O2)cc1OC (stereo not given) |  | inconclusive: 18.4 µM [cytotoxic, single point] |
| CCOC(=O)/C(C#N)=C/c1c(N2CCN(c3cccc(Cl)c3)CC2)nc2c(C)cccn2c1=O |  | inconclusive: 29.1 µM [cytotoxic, single point] |
| CC(C)(C)c1ccc(C(=O)NCCCN2CCN(CCCNC(=O)c3ccc(C(C)(C)C)cc3)CC2)cc1 |  | inconclusive: 29.1 µM [cytotoxic, single point] |

Later entries.

| SMILES | activity change, negative = cytotoxic | Potency |
| --- | --- | --- |
| COc1cccc(N=Cc2ccc(O)cc2O)c1 |  | inconclusive: 25.9 µM [rising, single point] |
| CCNc1nc(NCc2ccccc2)nc(SCC(=O)Nc2ccccc2)n1 |  | inconclusive: 29.1 µM [cytotoxic, single point] |
| Cc1cccc(NC(=O)Nc2cccc(F)c2)n1 |  | inconclusive: 29.1 µM [cytotoxic, single point] |
| COc1ccc(/C=N/Nc2ncnc3scc(-c4ccccc4)c23)cc1OC |  | inconclusive: 29.1 µM [cytotoxic, single point] |
| COc1ccc(C(=O)COC(=O)c2c(-c3ccccc3)noc2C)c(OC)c1 |  | inconclusive: 16.4 µM [cytotoxic, single point] |
| OC(c1ccccc1)(c1ccccc1)C1CCN(CCCOc2ccc3c(c2)CCCC3)CC1 |  | inconclusive: 16.4 µM [cytotoxic, single point] |
| Cc1cc(-c2csc(N)n2)c(C)n1Cc1ccco1 |  | inconclusive: 29.1 µM [cytotoxic, single point] |
| N#CC1(c2ccc(NC(=O)c3ccccc3F)cc2)CCCC1 |  | inconclusive: 20.6 µM [cytotoxic, single point] |
| CN1C(=O)C(CC(=O)Nc2ccc(F)cc2)N(CCCc2ccccc2)C1=S (stereo not given) |  | inconclusive: 29.1 µM [cytotoxic, single point] |
| Cc1ccc(COc2ccc(/C=N/NC(=O)c3nnn(-c4nonc4N)c3COc3ccc(F)cc3)cc2)cc1 |  | inconclusive: 29.1 µM [cytotoxic, single point] |
| CC(C)CCn1nnnc1CN1CCN(C(c2ccccc2)c2ccccc2)CC1 | inactive: 8.41% |  |
| COc1ccc(Cc2nnc(NC(=O)c3ccccc3C)s2)cc1 |  | inconclusive: 29.1 µM [cytotoxic, single point] |
| O=C(COn1nnc2ccccc21)N1CCN(Cc2ccccc2)CC1 | inactive: -1.15% |  |
| Cc1cccc(NS(=O)(=O)c2ccc(C(=O)NCC(c3ccco3)N3CCCCC3)cc2)c1C (stereo not given) |  | inconclusive: 8.2 µM [cytotoxic, partial curve, poor fit] |
| CCOC(=O)Cn1nc(/C=C/c2ccc(C(C)C)cc2)ccc1=O |  | inconclusive: 29.1 µM [cytotoxic, single point] |
| COc1ccc(Cl)cc1NC(=O)CCC(=O)N1CCOc2ccccc21 | inactive: -13.2% |  |
| COc1ccc(NC(=O)c2ccc(-c3c(C)noc3C)c3ccoc23)cn1 | inactive: -0.0404% |  |
| Cc1cc(-c2ccc(S(=O)(=O)N3CCCCC3)s2)on1 | inactive: -0.199% |  |
| Cc1cc(S(=O)(=O)N2CCOCC2)ccc1OCC(=O)NCC1CCCO1 (stereo not given) | inactive: 7.76% |  |
| CCN(c1ccccc1)S(=O)(=O)c1ccc(C(=O)Nc2nnc(COC)o2)cc1 |  | inconclusive: 29.1 µM [cytotoxic, single point] |
| C[C@H](O)[C@@H]1CN2CCc3c([nH]c4ccccc34)[C@@H]2C[C@@H]1N(C)C(=O)Nc1ccc(Br)cc1 |  | inconclusive: 29.1 µM [cytotoxic, single point] |
| COc1cccc(Nc2nc3ccc(C(=O)c4ccccc4)cc3n3cnnc23)c1 | inactive: 2.74% |  |
| COc1ccc(NC(=O)Cn2c(=O)n(CCc3ccccc3)c(=O)c3ccccc32)cc1 | inactive: -1.13% |  |
| Cc1cccc(C)c1-n1nnnc1C(c1ccnc2ccccc12)N(CCN(C)C)Cc1ccccc1 (stereo not given) |  | inconclusive: 18.4 µM [cytotoxic, single point] |

| SMILES | activity change, negative = cytotoxic | Potency |
| --- | --- | --- |
| CCOC(=O)N/N=C/c1cn(Cc2ccc(Cl)cc2)c2ccccc12 |  | inconclusive: 4.61 µM [cytotoxic, full curve] |
| CCOC(=O)/C=c1\s/c(=C\c2c(OC)ccc3ccccc23)c(=O)n1CC(=O)NCC1CCCO1 (stereo not given) |  | active: 4.61 µM |
| Cc1cccc(NC(=S)NCc2cccn2C)c1 |  | active: 20.6 µM |
| CCc1ccc2c(CN3CCN(S(=O)(=O)c4cccs4)CC3)cc(=O)oc2c1 | inactive: 0% |  |
| CCC(=O)N1CCc2cc(Br)cc(S(=O)(=O)N3CCCC(C(=O)NCc4ccccc4)C3)c21 (stereo not given) |  | inconclusive: 25.9 µM [cytotoxic, single point] |
| COc1cc(NS(=O)(=O)c2cc(C(=O)N3CCN(C(C)=O)CC3)ccc2OC)cc(OC)c1 | inactive: 21.3% |  |
| COc1ccc(NC(=O)OCCn2c([N+](=O)[O-])cnc2C)cc1 |  | inconclusive: 23.1 µM [rising, single point] |
| Cc1ccc(CN2CCSc3ccc(C(=O)NCc4ccco4)cc32)cc1 |  | inconclusive: 29.1 µM [cytotoxic, single point] |
| CCOC(=O)C1=CCCN(S(=O)(=O)c2ccc(C)cc2)C1 | inactive: 0.0302% |  |
| CCOC(=O)/C=C/C(=O)Nc1cc(S(=O)(=O)Nc2ccc(OC)cc2)ccc1N1CCOCC1 | inactive: 0.0635% |  |
| O=c1[nH]c2ccccc2nc1Cc1ccc([N+](=O)[O-])cc1 | inactive: -1.29% |  |
| Cc1occc1C(=O)Nc1cccc(C(=O)NCc2ccccc2)c1 |  | inconclusive: 23.1 µM [cytotoxic, single point] |
| COc1ccc([N+](=O)[O-])cc1NC(=O)Nc1ccccc1 |  | inconclusive: 29.1 µM [cytotoxic, single point] |
| O=C(Cn1c(=O)nc(-c2ccccc2)c2cc(Cl)ccc21)NCCc1ccc(Cl)cc1 |  | inconclusive: 29.1 µM [rising, partial curve, poor fit] |
| CCOCCCNCc1cc(Cl)cc(Cl)c1OCC | inactive: 3.95% |  |
| Cc1ccc(/C=N/Nc2nc(C)cc(C)n2)cc1 |  | inconclusive: 25.9 µM [cytotoxic, partial curve, poor fit] |
| CN(C)C1CCN(Cc2cc(COCc3ccccc3)c3cccnc3c2O)C1 (stereo not given) |  | inconclusive: 1.46 µM [cytotoxic, full curve, poor fit] |
| CCN1CCN(c2ncc3c(n2)CCN(Cc2ccc(Br)s2)C3)CC1 |  | inconclusive: 29.1 µM [cytotoxic, single point] |
| CN1CCN(c2ccc(NC(=O)c3ccc(Oc4ccccc4)cc3)cc2)CC1 |  | inconclusive: 18.4 µM [cytotoxic, single point] |
| CCN(C(=O)COC(=O)/C=C/c1nc2ccccc2s1)c1c(N)n(Cc2ccccc2)c(=O)[nH]c1=O | inactive: 15.1% |  |
| CN(Cc1ccccc1)C(=O)c1cc(-c2ccc(Br)cc2)on1 |  | inconclusive: 23.1 µM [cytotoxic, partial curve, poor fit] |
| CC1CCN(S(=O)(=O)c2cc(Cl)ccc2Br)CC1 | inactive: 7.31% |  |
